Assay results: PubChem BioAssay AID2417 (National Center for Advancing Translational Sciences (NCATS), 2010)
Out of some 140,000 compounds screened, about 4,300 (3.1%) were called active. Inconclusive means that the source gave no clear call. Such entries were picked first, then a sample of the others.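 Rule for the calls: active = readout at or below -70, meaning at least 70% loss of cells showing the perinucleolar compartment, a nuclear body marking cancer cells; inconclusive = readout between -30 and a set limit; inactive = the rest.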

Experiment: High Content Assay for Compounds that inhibit the Assembly of the Perinucleolar Compartment;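 note: plate controls were DMSO wells for no effect and camptothecin positive control wells for full effect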
Conditions: PC3M PTB-GFP, PNC prevalence imaging, 16 h; at 10 µM; stronger effect = lower value
Outline: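 Compounds are pinned in duplicate onto adhered PC3M cells stably expressing GFP-tagged PTB and incubated 16 h at 37 C. Cells are then fixed, nuclei stained with Hoechst, and PNC-positive cells counted.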

SMILES | activity change (PNC), negative = inhibition
CN(C)C1=NC(N(C)C)=NP(N(C)C)(N(C)C)=N1 | inconclusive: -50.2%
COC(=O)CC1(Cc2ccccc2)C(=O)NC(=O)NC1=O | inconclusive: -76%
NC(=S)N/N=C/c1coc2ccccc2c1=O | inactive: -4.58%
CC1CCN(CC(=O)c2ccccc2Cl)CC1 | inconclusive: -38.1%
Cc1onc(-c2ccccc2)c1C(=O)N1CCC2(CC1)OCCO2 | inconclusive: -56.7%
COc1ccc(CCN(C)Cc2ccc(F)cc2F)cc1OC | inconclusive: -36%
CCCCn1c(O)c(C(C)=NCCN2CCCCC2)c(=O)[nH]c1=O | inconclusive: -43.6%
COc1ccccc1N1CCN(Cc2ccc(Br)s2)CC1 | inconclusive: -35.5%
Cc1c(N=Cc2c(O)n(Cc3ccco3)c(=O)[nH]c2=O)c(=O)n(-c2ccccc2)n1C | active: -81.8%
Cc1[nH]c2ccccc2c1C(=O)CN1CC=C(c2ccccc2)CC1 | inconclusive: -41.8%
COc1ccc(-n2c(/C=C/c3ccc4c(c3)OCO4)nc3ccccc3c2=O)cc1 | inactive: 49.1%
COc1ccc(OCC(=O)N2CCN(C(C)C)CC2)cc1 | active: -100%
CCN(CC)C(=O)c1ccc(NC(=O)COc2ccc([N+](=O)[O-])cc2Cl)cc1 | inactive: -28.5%
N[C@@H](Cc1cc(Br)c(O)c(Br)c1)C(=O)O | inactive: -18.3%
O=c1c2ccccc2nc(-c2ccc(Cl)cc2Cl)n1-c1nccs1 | inconclusive: -76.7%
O=C(Cc1ccccc1)N1CCN(Cc2ccccn2)CC1 | active: -84%
Clc1ccc(-c2nc3ccc(Cl)cn3c2CN2CCOCC2)cc1 | inconclusive: -47.7%
O=C(COc1ccccc1)N1CCN(Cc2c[nH]c3ccccc23)CC1 | inactive: 24%
Cc1cc(NC(=O)COC(=O)c2c(C)nn(Cc3ccccc3)c2C)no1 | inconclusive: -71.4%
O=C1CC(N2CCC(n3c(=O)[nH]c4ccccc43)CC2)C(=O)N1c1ccc(F)cc1 (centres undefined) | inconclusive: -75.2%
O=C(CN1CC(c2ccccc2)CC1=O)Nc1ccccc1 (centres undefined) | inconclusive: -43.2%
O=C(c1cc2ccccn2n1)N1CCC2(CC1)OCCO2 | inconclusive: -34.3%
COc1cc(CC2C(=O)N(C)C(=O)N(C)C2=O)ccc1OCc1ccccc1 | inconclusive: -37.2%

SMILES | activity change (PNC), negative = inhibition
Cn1c(O)c(C=NCc2ccco2)c(=O)n(C)c1=O | inconclusive: -41.3%
Cc1ccnc(-n2c(-c3ccccc3)nc3ccccc3c2=O)c1 | inconclusive: -52.6%
Cc1nn(Cc2ccccc2Cl)c(C)c1C(=O)OCC(=O)NC1CCCC(C)C1C (centres undefined) | inconclusive: -43.5%
Cc1ccc2c(c1)C1CN(C)CCC1N2C(=O)Cn1nnc(-c2ccccc2F)n1 (centres undefined) | active: -101%
C/C(=N\Nc1cccc2ccccc12)c1c(O)n(Cc2ccccc2)c(=O)[nH]c1=O | inactive: -26.2%
CCOC(=O)C(O)(c1ccc(N(CC)S(=O)(=O)c2ccc(C)cc2)cc1)C(F)(F)F (centres undefined) | inconclusive: -37.5%
COC(=O)c1ccc(COc2cc(C)cc3oc(=O)c4c(c23)CCCC4)o1 | inconclusive: -37.5%
CN(C)c1ccc(CN2CC=C(c3ccc(F)cc3)CC2)cc1 | inconclusive: -40.1%
CCCCSP1(=S)NCCCO1 (centres undefined) | inconclusive: -62.7%
COc1ccc(C(CC(=O)N2CCC3(CC2)OCCO3)NS(=O)(=O)c2ccc(F)cc2)cc1 (centres undefined) | inactive: 19.3%
COc1cccc(CN2CCN(C(=O)COc3ccc4ccccc4c3)CC2)c1 | inactive: 11.6%
COc1ccc(C2=NCc3nnc(C)n3-c3ccc(Cl)cc32)cc1Cl | inactive: -10.1%
CCCCCCN=C(C)c1c(O)n(Cc2ccccc2)c(=O)[nH]c1=O | active: -111%
Cc1cc(C=C2C(=O)N(C)C(=S)N(C)C2=O)c(C)n1-c1cccnc1 | inactive: 10.3%
c1ccc(-c2[nH]c[n+](CC3CO3)c2-c2ccccc2)cc1 (centres undefined) | inconclusive: -43.2%
O=C1NC(=O)C(CCc2ccccn2)(Cc2ccc3c(c2)OCO3)C(=O)N1CCc1ccccc1 (centres undefined) | inconclusive: -33.2%
COc1ccc(CN2CCN(c3ccccc3F)CC2)c(OC)c1 | inconclusive: -40.4%
CC1(C)Cc2c(sc3c2C(=O)NC(c2cccnc2)N3)CO1 (centres undefined) | active: -101%
CN(C)c1ccc(P(=S)(N(C)C)N(C)C)cc1 | inconclusive: -73.9%
Nc1c(C(=O)NC2CCCC2)c2nc3ccccc3nc2n1CC1CCCO1 (centres undefined) | inconclusive: -39.6%
CCC(C)N1C(=O)/C(=C/c2ccc3c(c2)CCN3CCCCl)C(=O)NC1=S (centres undefined) | inconclusive: -41.7%
O=C(COC(=O)c1ccccc1)Nc1ccc(Cl)cc1C(=O)c1ccccc1 | inconclusive: -78.1%
O=C(Cc1ccccc1)N1CCN(CC2CC=CCC2)CC1 (centres undefined) | inactive: 3.54%

SMILES | activity change (PNC), negative = inhibition
CCC(=NCc1ccco1)c1c(O)n(-c2ccc(OC)cc2)c(=O)[nH]c1=O | inconclusive: -47.2%
CCN(CC)CCN=C(C)c1c(O)n(-c2ccccc2OC)c(=O)[nH]c1=O | inconclusive: -50%
CCC1CCCCN1P(=O)(c1ccc(C)o1)C(C)(C)C (centres undefined) | inconclusive: -57.9%
CC(C)N(CC(O)c1cccc([N+](=O)[O-])c1)C(C)C (centres undefined) | inconclusive: -30.1%
Cn1cccc1CNCCc1ccccc1 | inconclusive: -58.5%
CCOc1cccc(C2NCc3ccccc3-n3cccc32)c1O (centres undefined) | inconclusive: -46.3%
NCCc1ccc(O)cc1 | inconclusive: -43.7%
CCCS(=O)(=O)N1CCC(C(=O)N2CCC3(CC2)OCCO3)CC1 | inconclusive: -40.4%
COc1ccc(Cn2c(O)c(/C=N/NC(=O)c3ccccc3O)c(=O)[nH]c2=O)cc1 | inactive: 56.5%
COc1nc2ccccc2c(=O)n1-c1ccc(Cl)cc1 | inactive: -7.43%
CC/C(=N\N1CCCCCC1)c1c(O)n(-c2ccccc2C)c(=O)[nH]c1=O | active: -94.8%
CCN(N=Nc1nonc1OC)c1nonc1OC | inconclusive: -63.3%
CCN(CC)CCNCC(=O)Nc1ccc(Cl)cc1C(=O)c1ccccc1 | inactive: 36.2%
CC(C)COP(=O)(OCC(C)C)C(O)c1cccnc1 (centres undefined) | inconclusive: -69.7%
O=C(c1ccccc1)C(CN1CCCC1)c1ccccc1 (centres undefined) | inconclusive: -57.2%
CCOc1ccc(N2C(=O)NC(=O)/C(=C\c3ccc(N4CCCCC4)o3)C2=O)cc1 | inconclusive: -45.4%
C[N+]12CN3CN(CN(C3)C1)C2 | inconclusive: -54.5%
C=CCn1c(O)c(C(C)=Nc2ccc(N(C)C)cc2)c(=O)[nH]c1=O | active: -90.7%
COP(=O)(OC)C(Nc1ccccn1)c1ccccc1 (centres undefined) | inconclusive: -56.4%
NC(=O)c1cn(C2OC(CO)C(O)C2O)c2ncnc(N)c12 (centres undefined) | inconclusive: -33.8%
CCOC(=O)C(O)(c1ccc(N)c(OC)c1)C(F)(F)F (centres undefined) | inconclusive: -30.3%
C[C@@H]1O[C@@H](O[C@H]2C[C@@H](O)[C@]3(CO)[C@H]4[C@H](O)C[C@]5(C)[C@@H](C6=CC(=O)OC6)CC[C@]5(O)[C@@H]4CC[C@]3(O)C2)[C@H](O)[C@H](O)[C@H]1O | active: -115%
COc1cccc(C2C([N+](=O)[O-])=C(N)Oc3c2c(=O)oc2ccccc32)c1 (centres undefined) | inconclusive: -43.4%

Compounds from the list above that contain an aryl methoxy group (16):
SMILES | activity change (PNC), negative = inhibition
COc1ccc(CCN(C)Cc2ccc(F)cc2F)cc1OC | inconclusive: -36%
COc1ccccc1N1CCN(Cc2ccc(Br)s2)CC1 | inconclusive: -35.5%
COc1ccc(-n2c(/C=C/c3ccc4c(c3)OCO4)nc3ccccc3c2=O)cc1 | inactive: 49.1%
COc1ccc(OCC(=O)N2CCN(C(C)C)CC2)cc1 | active: -100%
COc1cc(CC2C(=O)N(C)C(=O)N(C)C2=O)ccc1OCc1ccccc1 | inconclusive: -37.2%
COc1ccc(C(CC(=O)N2CCC3(CC2)OCCO3)NS(=O)(=O)c2ccc(F)cc2)cc1 (centres undefined) | inactive: 19.3%
COc1cccc(CN2CCN(C(=O)COc3ccc4ccccc4c3)CC2)c1 | inactive: 11.6%
COc1ccc(C2=NCc3nnc(C)n3-c3ccc(Cl)cc32)cc1Cl | inactive: -10.1%
COc1ccc(CN2CCN(c3ccccc3F)CC2)c(OC)c1 | inconclusive: -40.4%
CCC(=NCc1ccco1)c1c(O)n(-c2ccc(OC)cc2)c(=O)[nH]c1=O | inconclusive: -47.2%
CCN(CC)CCN=C(C)c1c(O)n(-c2ccccc2OC)c(=O)[nH]c1=O | inconclusive: -50%
COc1ccc(Cn2c(O)c(/C=N/NC(=O)c3ccccc3O)c(=O)[nH]c2=O)cc1 | inactive: 56.5%
COc1nc2ccccc2c(=O)n1-c1ccc(Cl)cc1 | inactive: -7.43%
CCN(N=Nc1nonc1OC)c1nonc1OC | inconclusive: -63.3%
CCOC(=O)C(O)(c1ccc(N)c(OC)c1)C(F)(F)F (centres undefined) | inconclusive: -30.3%
COc1cccc(C2C([N+](=O)[O-])=C(N)Oc3c2c(=O)oc2ccccc32)c1 (centres undefined) | inconclusive: -43.4%

As entered above:
Value of O=C(Cc1ccccc1)N1CCN(Cc2ccccn2)CC1 under activity change (PNC), negative = inhibition: active: -84%
Value of NC(=S)N/N=C/c1coc2ccccc2c1=O under activity change (PNC), negative = inhibition: inactive: -4.58%

Next compounds follow:

SMILES | activity change (PNC), negative = inhibition
CC(=Nc1c(C)n(C)n(-c2ccccc2)c1=O)c1c(O)n(Cc2ccccc2)c(=O)[nH]c1=O | inactive: 15.6%
Cc1cccc(N2C(=O)CC(=O)NC2=O)c1 | inconclusive: -37.3%
Cc1ccc(C(=O)C2(C)N(O)C(C)C(c3cccs3)=[N+]2[O-])cc1 (centres undefined) | inconclusive: -66.1%
CCC(=NCCO)c1c(O)n(C2CCCCC2)c(=O)[nH]c1=O | inactive: 14.4%
COc1ccc(Cn2c(N)c(C(=O)NCc3ccco3)c3nc4ccccc4nc32)cc1OC | inconclusive: -39.8%
O=C(OCC(=O)c1ccc([N+](=O)[O-])cc1)/C(=C\c1ccc(Cl)cc1)NC(=O)c1ccccc1 | inactive: 17.8%
O=C(COc1ccccc1)N1CCN(CC(O)COc2ccccc2)CC1 (centres undefined) | inconclusive: -45.6%
Cc1cc(OCC(=O)NC2CCS(=O)(=O)C2)c2c3c(c(=O)oc2c1)CCC3 (centres undefined) | inconclusive: -41.7%
O=C(CN1CCOCC1)c1ccc2cc[nH]c2c1 | inactive: 29.3%
O=C1NC(=O)N(c2ccccc2)C(=O)/C1=C\c1ccc2c3c(cccc13)CC2 | inconclusive: -32.4%
O=C(c1ccc(CS(=O)(=O)c2ccc(Br)cc2)o1)N1CCC2(CC1)OCCO2 | inconclusive: -62%
N#CCCn1cc(C(=O)Nc2ccc([N+](=O)[O-])cc2)c(-c2ccc3c(c2)OCCO3)n1 | inconclusive: -56.7%
Cn1c(O)c(C=NCCN2CCN(C(=O)c3ccccc3)CC2)c(=O)n(C)c1=O | inconclusive: -52.7%
Cc1cccc(CN(C)C)c1OC(=O)N(C)C | inconclusive: -52.5%
CCOC(=O)C1(c2ccccc2)CCN(Cc2cccc(C(=O)O)c2)CC1 | inconclusive: -41.8%
CC1CCCN(C(=O)c2ccc(N3CC4CC(C3)c3cccc(=O)n3C4)c([N+](=O)[O-])c2)C1 (centres undefined) | active: -116%
Cc1cc(N2C(=O)C3CCCN3C2c2cccc(Cl)c2)no1 (centres undefined) | inactive: 18%
C=CCN(CC=C)Cc1c[nH]c2ccccc12 | inactive: -6.84%
C(#CCN1CCOCC1)COC/C=C/c1ccccc1 | inconclusive: -49.5%
O=C(N/N=C/c1c(O)n(CCC2=CCCCC2)c(=S)[nH]c1=O)c1ccccc1 | inactive: 22.4%
